Test [1] concerns the target T1, Hippo (Hpo), transfected (Drosophila melanogaster) (UniProt Q8T0S6).
T1 sequence: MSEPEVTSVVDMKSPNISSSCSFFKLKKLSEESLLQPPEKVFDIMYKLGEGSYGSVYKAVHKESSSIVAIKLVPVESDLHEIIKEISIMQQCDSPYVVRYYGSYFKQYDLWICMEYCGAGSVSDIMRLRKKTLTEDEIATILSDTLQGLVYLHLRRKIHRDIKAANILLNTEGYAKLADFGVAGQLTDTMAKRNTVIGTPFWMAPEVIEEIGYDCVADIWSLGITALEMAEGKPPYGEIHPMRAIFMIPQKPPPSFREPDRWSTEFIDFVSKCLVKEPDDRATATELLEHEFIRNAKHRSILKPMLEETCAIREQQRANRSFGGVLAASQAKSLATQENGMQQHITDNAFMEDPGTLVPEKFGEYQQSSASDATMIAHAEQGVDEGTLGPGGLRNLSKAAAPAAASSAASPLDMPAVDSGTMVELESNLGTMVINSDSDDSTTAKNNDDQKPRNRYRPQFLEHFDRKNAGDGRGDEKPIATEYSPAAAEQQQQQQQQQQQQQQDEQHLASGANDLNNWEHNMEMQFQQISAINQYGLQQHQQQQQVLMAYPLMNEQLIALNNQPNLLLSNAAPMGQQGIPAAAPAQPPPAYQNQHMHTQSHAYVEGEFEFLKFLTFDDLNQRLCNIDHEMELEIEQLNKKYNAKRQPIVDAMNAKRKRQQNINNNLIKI
Description: co-IP; S2 cells co-transfected with HA-tagged full-length or truncated Par-1 and Hpo, Sav, Wts or Mats; lysates immunoprecipitated, Western blot (Figures 5A-5B, S4B).

Test [2] deals with T2, Salvador (Sav), transfected (Drosophila melanogaster) (UniProt Q9VCR6).
T2 sequence: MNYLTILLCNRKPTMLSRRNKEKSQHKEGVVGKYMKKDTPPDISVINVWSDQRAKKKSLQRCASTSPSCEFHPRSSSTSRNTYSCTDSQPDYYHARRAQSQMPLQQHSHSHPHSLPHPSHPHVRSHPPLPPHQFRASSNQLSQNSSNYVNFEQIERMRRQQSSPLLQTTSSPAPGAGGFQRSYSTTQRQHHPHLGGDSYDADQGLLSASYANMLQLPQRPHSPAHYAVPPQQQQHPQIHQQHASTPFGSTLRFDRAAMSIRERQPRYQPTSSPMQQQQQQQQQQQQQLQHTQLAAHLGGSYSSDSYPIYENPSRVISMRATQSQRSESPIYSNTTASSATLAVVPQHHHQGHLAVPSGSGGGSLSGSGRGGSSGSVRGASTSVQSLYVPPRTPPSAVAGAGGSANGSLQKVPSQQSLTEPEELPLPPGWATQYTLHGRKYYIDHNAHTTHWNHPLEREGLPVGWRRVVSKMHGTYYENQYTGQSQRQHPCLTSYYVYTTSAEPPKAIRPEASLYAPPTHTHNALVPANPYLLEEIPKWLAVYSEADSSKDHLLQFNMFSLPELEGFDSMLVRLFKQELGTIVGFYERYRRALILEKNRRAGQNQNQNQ
The test is described as above.

These are yes or no findings as the source states them, for the method shown. In cells and extracts the contact can be indirect. Binding can be weak; no strength is given.

With “HA-tagged C-terminal fragment of Par-1 (Par-1-C) (Drosophila melanogaster) (domain or fragment)”, the binding result in test [1] and in test [2] was “binds weakly” throughout.

Regarding “HA-tagged N-terminal fragment of Par-1 (Par-1-N) (Drosophila melanogaster) (domain or fragment)”, the binding entry in test [1] and in test [2] was “binds” each time.

Turning to “HA-tagged full-length Par-1 (Par-1-N1S) (from UniProt A1ZBL6)”, the binding entry in test [1] and in test [2] was “binds weakly” throughout.

For the origin of these results see publication PMC3735459.
